PubChem BioAssay AID686938 | Drosophila RNAi Screening Center | 2013
Screen: 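Fly genes required for calcium entry once internal stores are emptied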 (primary screen). System: Drosophila S2R+ cells. Reagent: long dsRNA against Drosophila genes, about 0.25 µg dsRNA per well, roughly 10,000 cells. Duration: 5 days of knock-down before the calcium assay. Challenge: thapsigargin (SERCA pump blocker) to empty calcium stores; entry signal taken 4 min after adding it. Detection: 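Per-well fluo-4 fluorescence in two replicates, unnormalised, measured in resting cells and 4 min after store depletion by the SERCA blocker thapsigargin; ratio of the two present in few wells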. Reading the numbers: calcium entry signal: higher = stronger calcium signal after store depletion; resting calcium signal: higher = higher resting calcium signal. Hit rule: 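Called when the plate z-score of the entry-to-rest ratio, mean of duplicates, falls below −3; wells with low overall dye signal (Fmax z below −2) or more than five off-targets excluded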. Meaning of the calls: active = strongly reduced calcium entry; inactive = no strong reduction.
The screen tested about 23,000 reagents; this is a random part of those that have a named target and a result. Over the whole deposit, 75 (0.33%) got an active call. 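Raw plate signals without normalisation; calls rest on plate z-scores that were not deposited; ratio present for only 364 wells.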 Not stated in the record: the dose of the treatment.

The first 3 records, to show the layout:
no.	gene knocked down	amplicon	calcium entry signal, replicate 1 (fluorescence units)	calcium entry signal, replicate 2 (fluorescence units)	resting calcium signal, replicate 1 (fluorescence units)	resting calcium signal, replicate 2 (fluorescence units)	outcome
1	Obp58c (Odorant-binding protein 58c)	DRSC04166	3.90e7	4.11e7	1.95e7	1.85e7	inactive
2	GNBP1 (Gram-negative bacteria binding protein 1)	DRSC11169	3.53e7	4.83e7	1.72e7	1.98e7	inactive
3	GNBP1 (Gram-negative bacteria binding protein 1)	DRSC21836	1.75e7	6.37e7	1.03e7	2.61e7	inactive

Results, repeating the preview:
no.	gene knocked down	amplicon	calcium entry signal, replicate 1 (fluorescence units)	calcium entry signal, replicate 2 (fluorescence units)	resting calcium signal, replicate 1 (fluorescence units)	resting calcium signal, replicate 2 (fluorescence units)	outcome
1	Obp58c (Odorant-binding protein 58c)	DRSC04166	3.90e7	4.11e7	1.95e7	1.85e7	inactive
2	GNBP1 (Gram-negative bacteria binding protein 1)	DRSC11169	3.53e7	4.83e7	1.72e7	1.98e7	inactive
3	GNBP1 (Gram-negative bacteria binding protein 1)	DRSC21836	1.75e7	6.37e7	1.03e7	2.61e7	inactive
4	CG15498	DRSC15040	3.30e7	3.75e7	4.42e7	1.63e7	inactive
5	Diap1 (Death-associated inhibitor of apoptosis 1)	DRSC11404	2.03e7	1.75e7	1.21e7	1.77e7	inactive
6	CG3420	DRSC04995	4.33e7	4.92e7	2.19e7	2.30e7	inactive
7	Sur-8	DRSC15794	3.42e7	4.84e7	1.57e7	6.64e7	inactive
8	CG15347	DRSC18031	3.64e7	5.46e7	1.87e7	2.45e7	inactive
9	CG5103	DRSC10481	3.12e7	6.07e7	1.72e7	2.47e7	inactive
10	CG13587	DRSC04223	4.25e7	4.47e7	2.11e7	2.13e7	inactive
11	CG8907	DRSC16453	3.51e7	2.60e7	1.65e7	1.30e7	inactive
12	mtm (myotubularin)	DRSC03576	5.89e7		3.24e7		inactive
13	Mal-A8 (Maltase A8)	DRSC07234	3.79e7	4.46e7	1.68e7	1.67e7	inactive
14	CG7707	DRSC10903	2.17e7	3.94e7	1.29e7	1.61e7	inactive
15	CG15317	DRSC18005	3.48e7	4.02e7	1.65e7	1.83e7	inactive
16	CG34231	DRSC05323	3.86e7	3.87e7	1.61e7	1.69e7	inactive
17	GstD4 (Glutathione S transferase D4)	DRSC16685	2.79e7	3.24e7	1.40e7	1.65e7	inactive
18	Mical (Molecule interacting with CasL)	DRSC14349	2.26e7	2.63e7	1.17e7	1.47e7	inactive
19	Mical (Molecule interacting with CasL)	DRSC14351	2.17e7	2.38e7	1.34e7	1.28e7	inactive
20	Mical (Molecule interacting with CasL)	DRSC15365	2.17e7	2.37e7	1.18e7	1.32e7	inactive
21	Mical (Molecule interacting with CasL)	DRSC15366	2.18e7	2.16e7	1.30e7	1.19e7	inactive
22	Cpr23B (Cuticular protein 23B)	DRSC00555	2.80e7	4.04e7	1.57e7	1.67e7	inactive
23	Spt7	DRSC19997	5.16e7	4.42e7	2.09e7	1.93e7	inactive
24	CG32040	DRSC08981	4.71e7	3.98e7	2.60e7	1.87e7	inactive
25	CG32040	DRSC22459	3.54e7	3.49e7	2.00e7	1.71e7	inactive
